The list shows a part of the results.
Compound: CC1Cc2ccccc2N1C(=O)C1CCCN(C1)C(=O)CCl (mixture of isomers) [TRIM25 ligand 11 (diastereomer mixture)]
Test: probe-labelled cysteine peptide fold change vs DMSO (competition) (log2 fold change); higher = less target engagement (more negative = stronger competition)
Details: 10 µM; THP-1; incubation time: 4 h
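Note: competitive chemoproteomic profiling in live THP-1 cells with an iodoacetamide desthiobiotin (IA-DTB) probe, comparing probe-labelled peptide intensities in compound-treated cells against DMSO-treated controls.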

By UniProt entry, the sequences of proteins in these tests, tags left out. Where a name states a change or a piece, a line headed by the entry shows the natural chain unless it says otherwise.
UniProt Q14790: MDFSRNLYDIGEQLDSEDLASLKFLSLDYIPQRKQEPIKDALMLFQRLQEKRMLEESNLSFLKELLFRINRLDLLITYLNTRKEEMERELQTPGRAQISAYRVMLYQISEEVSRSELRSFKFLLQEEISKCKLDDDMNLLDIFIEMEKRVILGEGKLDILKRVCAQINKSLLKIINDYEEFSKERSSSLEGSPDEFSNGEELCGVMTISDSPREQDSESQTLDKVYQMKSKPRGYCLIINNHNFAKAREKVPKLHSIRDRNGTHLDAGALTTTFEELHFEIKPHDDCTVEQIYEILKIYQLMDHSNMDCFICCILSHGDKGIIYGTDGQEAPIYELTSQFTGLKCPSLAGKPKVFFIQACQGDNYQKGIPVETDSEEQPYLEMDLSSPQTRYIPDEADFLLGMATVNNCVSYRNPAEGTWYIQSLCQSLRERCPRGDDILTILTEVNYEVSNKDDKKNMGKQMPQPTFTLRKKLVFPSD
UniProt Q96S94: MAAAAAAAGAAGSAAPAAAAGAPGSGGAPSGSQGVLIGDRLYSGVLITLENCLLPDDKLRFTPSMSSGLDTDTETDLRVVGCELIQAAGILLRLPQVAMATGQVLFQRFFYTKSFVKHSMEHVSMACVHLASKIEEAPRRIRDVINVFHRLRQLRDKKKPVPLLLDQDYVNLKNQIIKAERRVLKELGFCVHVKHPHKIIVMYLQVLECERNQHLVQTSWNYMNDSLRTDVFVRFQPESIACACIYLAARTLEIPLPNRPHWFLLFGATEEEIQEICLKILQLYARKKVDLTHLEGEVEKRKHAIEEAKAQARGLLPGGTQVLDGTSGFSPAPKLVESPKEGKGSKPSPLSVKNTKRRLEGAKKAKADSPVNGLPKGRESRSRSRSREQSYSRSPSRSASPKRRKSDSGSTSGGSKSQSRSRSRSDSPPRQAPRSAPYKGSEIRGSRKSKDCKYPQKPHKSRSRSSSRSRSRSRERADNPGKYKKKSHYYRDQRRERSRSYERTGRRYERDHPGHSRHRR
UniProt Q01518, whole entry, looked up: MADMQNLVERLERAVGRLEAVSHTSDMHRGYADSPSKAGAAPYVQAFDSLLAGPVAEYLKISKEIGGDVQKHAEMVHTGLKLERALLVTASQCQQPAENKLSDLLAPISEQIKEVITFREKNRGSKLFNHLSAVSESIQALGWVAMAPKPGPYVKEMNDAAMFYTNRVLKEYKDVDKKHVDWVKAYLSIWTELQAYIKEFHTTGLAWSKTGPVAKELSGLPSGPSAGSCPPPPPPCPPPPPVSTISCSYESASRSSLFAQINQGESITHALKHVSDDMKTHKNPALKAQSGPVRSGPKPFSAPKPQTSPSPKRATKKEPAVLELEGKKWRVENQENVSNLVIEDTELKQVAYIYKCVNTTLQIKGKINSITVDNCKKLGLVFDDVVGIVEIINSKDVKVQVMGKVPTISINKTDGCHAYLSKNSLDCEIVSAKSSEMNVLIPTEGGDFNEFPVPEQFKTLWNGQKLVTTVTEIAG
UniProt P04632: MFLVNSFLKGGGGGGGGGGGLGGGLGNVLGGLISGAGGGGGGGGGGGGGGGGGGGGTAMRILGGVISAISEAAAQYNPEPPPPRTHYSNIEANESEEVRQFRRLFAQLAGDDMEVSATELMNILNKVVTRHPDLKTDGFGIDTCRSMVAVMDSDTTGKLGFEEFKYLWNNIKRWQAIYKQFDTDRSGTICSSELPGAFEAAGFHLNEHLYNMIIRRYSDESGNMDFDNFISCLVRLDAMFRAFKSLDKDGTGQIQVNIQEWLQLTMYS
UniProt Q75N03: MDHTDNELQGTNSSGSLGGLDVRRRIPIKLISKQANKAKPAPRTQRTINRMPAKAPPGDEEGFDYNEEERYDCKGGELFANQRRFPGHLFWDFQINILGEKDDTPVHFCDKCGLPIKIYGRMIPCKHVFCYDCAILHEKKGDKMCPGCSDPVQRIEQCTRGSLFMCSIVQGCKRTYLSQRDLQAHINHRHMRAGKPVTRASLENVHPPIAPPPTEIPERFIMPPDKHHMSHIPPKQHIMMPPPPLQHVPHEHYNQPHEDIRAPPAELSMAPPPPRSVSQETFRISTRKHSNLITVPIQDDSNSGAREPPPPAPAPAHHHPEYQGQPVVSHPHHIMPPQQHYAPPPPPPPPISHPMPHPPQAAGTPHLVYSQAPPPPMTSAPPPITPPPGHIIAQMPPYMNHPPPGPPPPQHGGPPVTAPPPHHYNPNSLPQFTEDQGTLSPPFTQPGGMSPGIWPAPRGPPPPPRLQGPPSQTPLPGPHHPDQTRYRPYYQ
UniProt P16152: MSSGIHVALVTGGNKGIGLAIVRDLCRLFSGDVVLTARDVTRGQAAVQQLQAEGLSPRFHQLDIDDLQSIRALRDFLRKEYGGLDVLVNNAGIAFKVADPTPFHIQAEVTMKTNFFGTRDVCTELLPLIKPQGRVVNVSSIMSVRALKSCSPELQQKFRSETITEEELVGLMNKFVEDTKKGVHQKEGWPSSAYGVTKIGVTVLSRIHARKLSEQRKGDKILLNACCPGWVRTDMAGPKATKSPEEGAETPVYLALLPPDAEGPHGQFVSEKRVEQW
UniProt P42574: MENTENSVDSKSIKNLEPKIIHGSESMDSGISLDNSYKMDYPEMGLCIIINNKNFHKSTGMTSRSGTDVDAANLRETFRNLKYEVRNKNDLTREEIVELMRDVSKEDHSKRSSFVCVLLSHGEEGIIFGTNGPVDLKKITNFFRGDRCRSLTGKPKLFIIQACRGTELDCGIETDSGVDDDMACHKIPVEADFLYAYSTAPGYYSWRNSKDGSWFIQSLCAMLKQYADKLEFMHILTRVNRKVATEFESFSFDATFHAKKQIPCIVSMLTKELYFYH
UniProt P49368: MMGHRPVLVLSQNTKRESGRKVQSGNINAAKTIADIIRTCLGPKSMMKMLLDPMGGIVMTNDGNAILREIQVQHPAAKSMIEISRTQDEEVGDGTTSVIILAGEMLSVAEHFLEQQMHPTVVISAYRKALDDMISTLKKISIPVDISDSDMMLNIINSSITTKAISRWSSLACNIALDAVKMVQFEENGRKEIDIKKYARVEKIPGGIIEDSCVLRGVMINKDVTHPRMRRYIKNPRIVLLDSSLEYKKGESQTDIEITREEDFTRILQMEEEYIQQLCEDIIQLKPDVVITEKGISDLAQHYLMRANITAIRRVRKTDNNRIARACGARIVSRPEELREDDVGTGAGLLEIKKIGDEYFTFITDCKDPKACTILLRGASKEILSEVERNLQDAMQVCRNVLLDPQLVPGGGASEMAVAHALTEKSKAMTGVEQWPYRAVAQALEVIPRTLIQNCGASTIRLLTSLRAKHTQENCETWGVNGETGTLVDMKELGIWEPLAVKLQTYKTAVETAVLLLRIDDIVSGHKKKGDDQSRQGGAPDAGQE
UniProt Q8IWD4: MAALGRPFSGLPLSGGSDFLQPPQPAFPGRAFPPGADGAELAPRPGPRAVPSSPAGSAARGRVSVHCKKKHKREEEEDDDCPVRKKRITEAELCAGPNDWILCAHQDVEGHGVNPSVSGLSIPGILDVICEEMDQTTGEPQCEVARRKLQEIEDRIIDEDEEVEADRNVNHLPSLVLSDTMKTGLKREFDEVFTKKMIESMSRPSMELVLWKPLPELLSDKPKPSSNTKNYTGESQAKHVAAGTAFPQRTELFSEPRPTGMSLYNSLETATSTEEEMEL
UniProt P42575: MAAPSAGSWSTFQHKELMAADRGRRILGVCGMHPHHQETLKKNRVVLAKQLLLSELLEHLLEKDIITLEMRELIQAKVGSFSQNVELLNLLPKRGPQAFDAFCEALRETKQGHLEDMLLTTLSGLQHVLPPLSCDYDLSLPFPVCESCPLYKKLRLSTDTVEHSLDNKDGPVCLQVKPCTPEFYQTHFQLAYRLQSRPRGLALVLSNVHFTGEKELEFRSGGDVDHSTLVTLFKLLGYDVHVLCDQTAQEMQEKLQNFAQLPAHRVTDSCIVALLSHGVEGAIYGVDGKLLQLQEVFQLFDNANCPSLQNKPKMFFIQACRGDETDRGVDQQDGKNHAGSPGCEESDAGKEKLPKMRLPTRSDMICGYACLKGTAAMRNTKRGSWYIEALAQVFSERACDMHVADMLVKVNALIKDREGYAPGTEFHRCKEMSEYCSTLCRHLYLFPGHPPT
UniProt P49589: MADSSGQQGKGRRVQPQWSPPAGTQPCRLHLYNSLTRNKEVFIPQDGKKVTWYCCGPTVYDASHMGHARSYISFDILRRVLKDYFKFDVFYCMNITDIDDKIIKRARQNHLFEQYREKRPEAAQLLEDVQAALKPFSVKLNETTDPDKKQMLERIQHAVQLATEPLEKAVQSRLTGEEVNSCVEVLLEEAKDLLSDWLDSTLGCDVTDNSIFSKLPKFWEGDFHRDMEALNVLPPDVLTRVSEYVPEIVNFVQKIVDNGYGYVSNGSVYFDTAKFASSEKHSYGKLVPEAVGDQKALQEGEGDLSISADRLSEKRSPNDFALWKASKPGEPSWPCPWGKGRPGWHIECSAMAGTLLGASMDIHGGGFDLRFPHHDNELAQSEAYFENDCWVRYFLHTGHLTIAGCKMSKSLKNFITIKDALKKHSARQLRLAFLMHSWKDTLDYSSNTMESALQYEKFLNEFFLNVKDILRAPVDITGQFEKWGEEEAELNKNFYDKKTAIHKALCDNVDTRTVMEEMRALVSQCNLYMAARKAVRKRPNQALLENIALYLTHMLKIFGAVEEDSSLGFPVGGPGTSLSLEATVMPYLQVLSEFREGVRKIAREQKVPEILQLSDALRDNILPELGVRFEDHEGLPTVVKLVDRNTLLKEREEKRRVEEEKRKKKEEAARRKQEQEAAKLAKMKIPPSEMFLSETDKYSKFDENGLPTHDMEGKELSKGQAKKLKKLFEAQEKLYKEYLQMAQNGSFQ
UniProt Q6P1N0: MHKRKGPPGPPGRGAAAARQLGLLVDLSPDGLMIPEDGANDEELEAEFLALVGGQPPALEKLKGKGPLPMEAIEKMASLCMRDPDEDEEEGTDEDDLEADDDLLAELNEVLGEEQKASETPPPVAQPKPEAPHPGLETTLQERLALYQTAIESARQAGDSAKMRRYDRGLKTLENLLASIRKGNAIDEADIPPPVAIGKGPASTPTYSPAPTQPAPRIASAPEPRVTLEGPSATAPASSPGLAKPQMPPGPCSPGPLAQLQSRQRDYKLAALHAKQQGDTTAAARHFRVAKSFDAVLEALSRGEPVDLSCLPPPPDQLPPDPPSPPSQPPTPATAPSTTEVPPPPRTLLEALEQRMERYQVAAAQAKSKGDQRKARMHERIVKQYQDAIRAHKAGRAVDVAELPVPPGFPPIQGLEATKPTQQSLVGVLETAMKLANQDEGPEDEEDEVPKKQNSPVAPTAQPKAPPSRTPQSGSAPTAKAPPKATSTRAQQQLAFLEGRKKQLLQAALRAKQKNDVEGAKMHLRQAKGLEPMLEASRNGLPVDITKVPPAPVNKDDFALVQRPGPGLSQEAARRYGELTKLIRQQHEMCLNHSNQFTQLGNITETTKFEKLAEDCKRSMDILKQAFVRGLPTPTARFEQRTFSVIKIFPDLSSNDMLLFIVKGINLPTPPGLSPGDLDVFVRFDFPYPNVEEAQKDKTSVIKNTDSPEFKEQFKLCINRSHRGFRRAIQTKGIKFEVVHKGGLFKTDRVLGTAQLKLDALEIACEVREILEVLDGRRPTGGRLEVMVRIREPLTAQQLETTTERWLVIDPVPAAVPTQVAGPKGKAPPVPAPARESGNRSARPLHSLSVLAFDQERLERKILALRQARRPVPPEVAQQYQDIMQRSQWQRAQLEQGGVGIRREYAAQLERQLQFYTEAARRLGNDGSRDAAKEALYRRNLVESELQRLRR
UniProt P20248, whole entry, looked up: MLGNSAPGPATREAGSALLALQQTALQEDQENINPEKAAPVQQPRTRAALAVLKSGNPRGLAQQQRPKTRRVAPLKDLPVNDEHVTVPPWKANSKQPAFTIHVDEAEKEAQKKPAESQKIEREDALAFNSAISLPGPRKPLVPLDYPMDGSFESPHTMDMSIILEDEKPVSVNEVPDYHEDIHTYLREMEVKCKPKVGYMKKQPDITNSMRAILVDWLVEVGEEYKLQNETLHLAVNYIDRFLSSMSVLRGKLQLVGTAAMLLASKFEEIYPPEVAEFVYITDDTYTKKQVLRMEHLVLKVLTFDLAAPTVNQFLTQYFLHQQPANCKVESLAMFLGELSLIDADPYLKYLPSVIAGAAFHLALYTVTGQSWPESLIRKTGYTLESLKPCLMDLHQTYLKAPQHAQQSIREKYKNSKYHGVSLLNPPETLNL

| Target | probe-labelled cysteine peptide fold change |
| --- | --- |
| CASP8_Q14790_312+313_IYQLMDHSNMDCFICCILSHGDK (UniProt Q14790) | -0.175 |
| CCNL2_Q96S94_190_ELGFCVHVK (UniProt Q96S94) | 0.123 |
| CAP1_Q01518_375_INSITVDNCK (UniProt Q01518) | 0.148 |
| CAPNS1_P04632_144_TDGFGIDTCR (UniProt P04632) | -0.0564 |
| CBLL1_Q75N03_133_HVFCYDCAILHEK (UniProt Q75N03) | -0.00229 |
| CBR1_P16152_150_SCSPELQQK (UniProt P16152) | -0.0902 |
| CAPZA2_P47755_141_EHYPNGVCTVYGK (UniProt P47755) | -0.0378 |
| CASP3_P42574_184_GTELDCGIETDSGVDDDMACHK (UniProt P42574) | 0.206 |
| CASP3_P42574_116_RSSFVCVLLSHGEEGIIFGTNGPVDLKK (UniProt P42574) | -0.187 |
| CCT3_P49368_173_WSSLACNIALDAVK (UniProt P49368) | 0.0129 |
| CCDC97_Q96F63_218_TPTHQPPKPGSPGRPACPLSNLLLQSYEER (UniProt Q96F63) | -0.0458 |
| CCDC117_Q8IWD4_81_EEEEDDDCPVR (UniProt Q8IWD4) | -0.0343 |
| CASP2_P42575_173+179_DGPVCLQVKPCTPEFYQTHFQLAYR (UniProt P42575) | -0.13 |
| CARS_P49589_389_FPHHDNELAQSEAYFENDCWVR (UniProt P49589) | 0.238 |
| CC2D1A_Q6P1N0_765_LDALEIACEVR (UniProt Q6P1N0) | 0.184 |
| CCNA2_P20248_390_KTGYTLESLKPCLMDLHQTYLK (UniProt P20248) | -0.167 |

A run of entries taken from the entries so far, as a working copy:

| Target | probe-labelled cysteine peptide fold change |
| --- | --- |
| CCDC97_Q96F63_218_TPTHQPPKPGSPGRPACPLSNLLLQSYEER (UniProt Q96F63) | -0.0458 |
| CCDC117_Q8IWD4_81_EEEEDDDCPVR (UniProt Q8IWD4) | -0.0343 |

Source: the supplement of paper PMC12067093, “Discovery and optimisation of a covalent ligand for TRIM25 and its application to targeted protein ubiquitination” (Chemical Science, 2025)
